## Library screen at single concentrations

Measurements from “University of Dundee, Small-Polar-MMV Screening Library” (2021), ChEMBL document CHEMBL3988442.

Toxoplasma: 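Assay of Toxoplasma gondii numbers, read through their beta-galactosidase reporter with a colour substrate. Tested at 10 µM. Higher reads as fewer parasites (inferred from which compounds were picked for retests). Size under these conditions: about 67,000 compounds, about 260 of them at 50% or above in at least one test.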
Leishmania in macrophages: 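Cell assay of Leishmania donovani living inside macrophages; the read-out is not stated. Concentration: 30 µM. Higher reads as stronger inhibition (inferred: compounds with an IC50 in retests scored well above the rest). About 69,000 compounds were tested under these conditions; 1.5% (about 1,000) showed 50% or more at least once.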

The filed quantity is “Percent Effect” (%). The record does not define 0% and 100%; most values in the screen are far below 50% and negative numbers occur (in some assays of this library far below -100). This is an unselected part of the compounds tested. Two or more numbers in one place are separate tests of the same structure; such repeats can differ widely. A dash means the value is not listed here; it may have been measured.

compound,Toxoplasma,Leishmania in macrophages
Cn1cc(C(=O)NCc2cn3c(n2)CN(CC2CCCC2)CC3)cn1.O=C(O)C(F)(F)F.O=C(O)C(F)(F)F,-1.781%,-19.13%
CS(=O)(=O)c1nnc(NC(=O)CCc2ccc(Cl)s2)[nH]1,-2.727%,15.66%
Cc1cc(F)ccc1NC(=O)NCC(C)N1CCOCC1 (stereo not shown),8.779%,13.83%
CN(CC1COc2ccccc2O1)C(=O)CCn1cncn1 (stereo not shown),-17.35%,30.84%
CN(Cc1cn2c(n1)CN(Cc1ccc(F)cc1)CC2)Cc1ccco1.O=C(O)C(F)(F)F.O=C(O)C(F)(F)F,-3.187%,31.98%
Cn1ccnc1CN1CCC2(CC1)CC(Nc1ccccn1)CO2 (stereo not shown),1.242%,21.97% & 5.586%
Cc1ccsc1CN(C)C(=O)c1cc2c([nH]c1=O)CCCC2=O,23.19%,-4.741%
Cc1cccc(C(=O)NCc2cccnc2N(C)C)n1,-32.16%,1.493%
CN(C)c1cccc(C(=O)N2CCC(c3n[nH]c(C4CC4)n3)CC2)c1,-43.07%,6.951%
O=C(c1[nH]nc(C2CC2)c1Cl)N1CCN(S(=O)(=O)c2ccccc2)CC1,5.265%,-2.024%
[H][C@@]12C[C@H](NC(=O)c3cc(C)ccc3NC)CN1CCN(C)C2,3.58%,25.88%
COC[C@@H]1CCCN1C(=O)c1cc(-c2ccc(OC)cc2)n[nH]1,-3.196%,15.18%
Cc1cc(C(=O)N2C[C@H](c3ccccc3)[C@@H](N)C2)c2ccc(F)cc2n1,16.24%,1.969%
CC(C)c1nccn1-c1nccnc1C1CCCN1Cc1ccccc1 (stereo not shown),-,19.99%
CC(=O)c1cc(Br)cc(F)c1OCC(=O)NC(C)C,2.166%,13.14%
NC(=O)CN1CCN(C(=O)c2cc(Cl)cc3cccnc23)CC1,-52.58%,-14.25%
CCn1nc2c(cc1=O)CN(CCCOc1ccc(C#N)cc1)CC2,4.071%,-15.14%
CNc1ncccc1C(=O)N1CCCC2(C1)C(=O)N(C)c1ccccc12 (stereo not shown),8.76%,63.07%
Cc1ncncc1C(=O)N1CCCC(c2[nH]ncc2S(C)(=O)=O)C1 (stereo not shown),17.21%,6.323% & 6.35%
Cc1cccc(CS(=O)(=O)Cc2ccn(C)c(=O)c2)c1,-0.1608%,18.93%
CCc1cccc2c(CC(=O)N(C)CCN(C)C)c(C)[nH]c12.O=C(O)CC(O)(CC(=O)O)C(=O)O,-2.281%,14.71%
CC(C)c1nnsc1CN1CCc2[nH]nc(-c3ccc(Cl)cc3)c2C1,4.933%,10.87%
COC(=O)CCC(=O)N1CCc2[nH]nc(-c3ccc(F)c(F)c3)c2C1,-0.6911%,-6.499%
CCc1ccc(C2CCCCCN2C(=O)CNC(=O)NC2CC2)o1 (stereo not shown),5.898%,-2.182%
COCCN1CCc2cc(C(=O)NC(C)C)c(NCC3CC3)nc2CC1.O=C(O)C(F)(F)F.O=C(O)C(F)(F)F,8.986%,1.027%
CCN(CC1CCCO1)C(=O)Nc1cc(OC)c(OC)cc1C (stereo not shown),-,16.16%
CN(Cc1nccn1C)c1ccc(-c2nccn2C)nn1,0.4327%,-19.34%
N#Cc1ccc(F)c(CN(CC(=O)N2CCCC2)CC2CCCO2)c1 (stereo not shown),10.16%,9.337%
CC(C)CC(=O)N[C@H](C)c1c(-c2ccc(Cl)cc2)noc1C(=O)O.Cl,12.07%,10.01%
Cc1cc(C)nc(N2CCC(c3nnc(CN(C)C)n3C3CC3)CC2)n1,13.02%,8.584%
COc1ccc(CNC(=O)NC2CCN(CC(F)F)CC2)cc1C,2.818%,11.79%
CN(C)[C@@H]1CCN(C(=O)Cc2ccc(F)cc2)[C@H]1Cc1cnn(C)c1.O=C(O)C(F)(F)F,-0.9429%,15.1%
O=C(O)C(F)(F)F.[H][C@@]12COC[C@]1(CNC(=O)c1ccccc1)CN(Cc1ccco1)C2,7.958%,25.77%
CN(C)CCNC(=O)C1Cc2nc(-c3ccsc3)sc2N1CC1CC1.O=C(O)C(F)(F)F (stereo not shown),-22.09%,20.21%
CCn1nc(C)c2nc(C(C)C)nc(NCC(=O)N3CCOCC3)c21,10.03%,-41.21%
Cc1ncc2c(n1)CCCC2NC(=O)c1ccccc1Cn1cncn1 (stereo not shown),4.991%,6.147%
O=C(NCCc1ccccc1)C1CCN(C(=O)Cn2cncn2)C1 (stereo not shown),10.53%,9.95%
CC(=O)Nn1ccc2c(nnc3c(-c4ccccc4)cnn32)c1=O,1.489%,-35.15%
CC(C)(C(=O)O)S(=O)(=O)c1ccc(Br)cc1,-5.569%,13%
Cc1cc(C)nc(N2CCCC(c3cccc(-n4ccnc4)n3)C2)n1 (stereo not shown),11.23%,-4.742% & -5.676%
Cc1cc(NC(=O)CN2CCCC(Cn3cncn3)C2)no1 (stereo not shown),3.605%,21.82%
CCN(CC1CCCN(CCc2cccc(OC)c2)C1)C(=O)CSC (stereo not shown),-2.247%,20.14%
N#Cc1cn[nH]c1NCc1cc(I)cc(I)c1O,-4.434%,5.99%
CN(C)S(=O)(=O)N1CC(c2nc(N)ncc2-c2ccc(F)cc2)C1,6.408%,-10.1%
[H][C@]12CC[C@]([H])(CN(Cc3cccc(C(=O)Nc4ccnn4C)c3)C1)N2,2.291%,41.73%
Cc1ccc(CN2CCOCC2)cc1NC(=O)c1ccsc1,-2.195%,21.98%
Cc1cc(C(=O)NCc2ccnc(N3CCN(C)CC3)c2)c(C)s1,-9.398%,26.31%
Cl.O=C1NCCCCC1NCc1csc(-c2ccc(F)cc2)n1 (stereo not shown),0.1142%,6.69%
Cc1nn(C)c(C)c1C1CCCN1CCOc1cccc(C#N)c1 (stereo not shown),-6.471%,-28.96%
CCC(CC)n1nc(C)cc1NC(=O)C1CCOC1 (stereo not shown),13.39%,15.28%
CCC(=O)N1CCCC1c1nccnc1Nc1ncccn1 (stereo not shown),-23.77%,1.559%
Cc1cc(CNC(=O)N2CCN(c3ccc(Cl)cn3)CC2)c(C)o1,-2.045%,-11.01%
COc1cccc(N2CCN(CC(O)c3cc(C)ccc3C)CC2)c1 (stereo not shown),0.7541%,10.73%
CSc1ccc(NC(=O)Cc2cccc(O)c2)nc1,19.84%,12.16%
CCCOc1ccc(CNC(=O)N2CCC(C(N)=O)C2)cc1 (stereo not shown),-,18.61%
N#Cc1ccc(CN2CCCCC2Cn2cncn2)cc1 (stereo not shown),-7.553%,22.91%
c1cnn(CC2CN(Cc3csc(-c4ccsc4)n3)CCO2)c1 (stereo not shown),-1.248%,16.69%
CNc1oc(-c2cc(S(=O)(=O)N3CCCC3)c(C)o2)nc1C#N,-10.09%,15.65%
Cn1cccc1-c1cc(C(=O)N2CCCC2c2ccc(C(N)=O)s2)[nH]n1 (stereo not shown),-4.423%,10.06%
C[C@H]1CN(C)C[C@@]12COCCN(C(=O)Cc1ccccc1)C2.O=C(O)C(F)(F)F,2.34%,0.7155%
CC(=O)N1CCC(c2ccnc(Nc3cncnc3)n2)C1 (stereo not shown),1.165%,21.36%
COCCOc1ccc(-c2noc([C@@H]3CCCN3)n2)cn1,4.041%,-4.884%
Cc1nc(-c2ccc(CC(=O)N3CCNC(=O)C3)cc2)cs1,-1.905%,-22.6%
COc1ccc(-c2n[nH]cc2CNC2CCN(C3CC3)CC2)cc1.Cl,23.02%,7.893%
Fc1cccc(C2(CNC3CCOC4(CCOCC4)C3)CCOCC2)c1 (stereo not shown),19.13%,27.23%
Cc1cnccc1CN1CC[C@H](Oc2cccc(F)c2)[C@@](C)(O)C1,-6.464%,11.83% & 4.285%
Cc1cc(C)n(C2CCCN(C(=O)c3cc(C4CC4)on3)C2)n1 (stereo not shown),-1.831%,18.63%
CS(=O)(=O)NC(=O)c1cc(Cl)c2c(c1)OCCCO2,1.101%,13.82%
CC(=O)NCc1ccc(C(=O)N2CCCc3c(F)ccc(C)c32)cc1,16.19%,35.68%
CCC(O)CN1CCN(C(=O)c2cc(Cl)cc3cccnc23)CC1 (stereo not shown),-27.86%,-2.31%